According to PMC10881398, “O-glycosylation of the transcription factor SPATULA promotes style development in Arabidopsis” (Nature Plants, 2024):
Results are given in words; binding and its absence hold for the method and conditions named. For some of these results: Binding can be weak; no strength is given. Where a sequence is shown, tags or fusion partners need not be part of it.

Columns and labels:
Test in all cases: two-hybrid; yeast AH109; SEC and SPY as bait (BD), SPT as prey (AD); growth on SD/−Ade/−His/−Leu/−Trp and with 2.5 mM 3-AT, serial dilutions, five days at 28 °C
[1] = biological target: SEC N-terminal tetratricopeptide repeats (TPRs 1–13), yeast two-hybrid bait (BD) (Arabidopsis thaliana)
[2] = biological target: SEC carboxy-terminal catalytic domain, yeast two-hybrid bait (BD) (Arabidopsis thaliana)
[3] = biological target: SPY N-terminal tetratricopeptide repeats (TPRs 1–11), yeast two-hybrid bait (BD) (Arabidopsis thaliana)
[4] = biological target: SPY carboxy-terminal catalytic domain, yeast two-hybrid bait (BD) (Arabidopsis thaliana)

B1: SPT–GFP (35S::SPT::GFP) (natural protein, Arabidopsis thaliana, UniProt Q9FUA4 1-373, looked up)
chain: MISQREEREEKKQRVMGDKKLISSSSSSSVYDTRINHHLHHPPSSSDEISQFLRHIFDRSSPLPSYYSPATTTTTASLIGVHGSGDPHADNSRSLVSHHPPSDSVLMSKRVGDFSEVLIGGGSGSAAACFGFSGGGNNNNVQGNSSGTRVSSSSVGASGNETDEYDCESEEGGEAVVDEAPSSKSGPSSRSSSKRCRAAEVHNLSEKRRRSRINEKMKALQSLIPNSNKTDKASMLDEAIEYLKQLQLQVQMLTMRNGINLHPLCLPGTTLHPLQLSQIRPPEATNDPLLNHTNQFASTSNAPEMINTVASSYALEPSIRSHFGPFPLLTSPVEMSREGGLTHPRLNIGHSNANITGEQALFDGQPDLKDRIT
notes: SPATULA (SPT), Arabidopsis thaliana; in the self-association row the second copy carried RFP in place of EGFP (35S::SPT–RFP); also called SPT–EGFP; SPT–RFP (the second copy in the homodimer test); source: N. benthamiana leaves, Agrobacterium-infiltrated, in nuclei of leaf cells
In the case of B1, the binding [1] is reported as “binds”, the binding [2] is reported as “no binding” and the binding [3] is reported as “binds”. For the same binder, the binding [4] was “no binding”.
